Reference: article PMC7917804
No constants are given. Whether binding was seen depends on the method and setting. Binding seen in cells or lysates may run through a third protein. Some binding calls cover weakened binding; strength is not graded here.

Chains of the proteins cited; added tags and fusions are not shown.
UniProt A5YKK6: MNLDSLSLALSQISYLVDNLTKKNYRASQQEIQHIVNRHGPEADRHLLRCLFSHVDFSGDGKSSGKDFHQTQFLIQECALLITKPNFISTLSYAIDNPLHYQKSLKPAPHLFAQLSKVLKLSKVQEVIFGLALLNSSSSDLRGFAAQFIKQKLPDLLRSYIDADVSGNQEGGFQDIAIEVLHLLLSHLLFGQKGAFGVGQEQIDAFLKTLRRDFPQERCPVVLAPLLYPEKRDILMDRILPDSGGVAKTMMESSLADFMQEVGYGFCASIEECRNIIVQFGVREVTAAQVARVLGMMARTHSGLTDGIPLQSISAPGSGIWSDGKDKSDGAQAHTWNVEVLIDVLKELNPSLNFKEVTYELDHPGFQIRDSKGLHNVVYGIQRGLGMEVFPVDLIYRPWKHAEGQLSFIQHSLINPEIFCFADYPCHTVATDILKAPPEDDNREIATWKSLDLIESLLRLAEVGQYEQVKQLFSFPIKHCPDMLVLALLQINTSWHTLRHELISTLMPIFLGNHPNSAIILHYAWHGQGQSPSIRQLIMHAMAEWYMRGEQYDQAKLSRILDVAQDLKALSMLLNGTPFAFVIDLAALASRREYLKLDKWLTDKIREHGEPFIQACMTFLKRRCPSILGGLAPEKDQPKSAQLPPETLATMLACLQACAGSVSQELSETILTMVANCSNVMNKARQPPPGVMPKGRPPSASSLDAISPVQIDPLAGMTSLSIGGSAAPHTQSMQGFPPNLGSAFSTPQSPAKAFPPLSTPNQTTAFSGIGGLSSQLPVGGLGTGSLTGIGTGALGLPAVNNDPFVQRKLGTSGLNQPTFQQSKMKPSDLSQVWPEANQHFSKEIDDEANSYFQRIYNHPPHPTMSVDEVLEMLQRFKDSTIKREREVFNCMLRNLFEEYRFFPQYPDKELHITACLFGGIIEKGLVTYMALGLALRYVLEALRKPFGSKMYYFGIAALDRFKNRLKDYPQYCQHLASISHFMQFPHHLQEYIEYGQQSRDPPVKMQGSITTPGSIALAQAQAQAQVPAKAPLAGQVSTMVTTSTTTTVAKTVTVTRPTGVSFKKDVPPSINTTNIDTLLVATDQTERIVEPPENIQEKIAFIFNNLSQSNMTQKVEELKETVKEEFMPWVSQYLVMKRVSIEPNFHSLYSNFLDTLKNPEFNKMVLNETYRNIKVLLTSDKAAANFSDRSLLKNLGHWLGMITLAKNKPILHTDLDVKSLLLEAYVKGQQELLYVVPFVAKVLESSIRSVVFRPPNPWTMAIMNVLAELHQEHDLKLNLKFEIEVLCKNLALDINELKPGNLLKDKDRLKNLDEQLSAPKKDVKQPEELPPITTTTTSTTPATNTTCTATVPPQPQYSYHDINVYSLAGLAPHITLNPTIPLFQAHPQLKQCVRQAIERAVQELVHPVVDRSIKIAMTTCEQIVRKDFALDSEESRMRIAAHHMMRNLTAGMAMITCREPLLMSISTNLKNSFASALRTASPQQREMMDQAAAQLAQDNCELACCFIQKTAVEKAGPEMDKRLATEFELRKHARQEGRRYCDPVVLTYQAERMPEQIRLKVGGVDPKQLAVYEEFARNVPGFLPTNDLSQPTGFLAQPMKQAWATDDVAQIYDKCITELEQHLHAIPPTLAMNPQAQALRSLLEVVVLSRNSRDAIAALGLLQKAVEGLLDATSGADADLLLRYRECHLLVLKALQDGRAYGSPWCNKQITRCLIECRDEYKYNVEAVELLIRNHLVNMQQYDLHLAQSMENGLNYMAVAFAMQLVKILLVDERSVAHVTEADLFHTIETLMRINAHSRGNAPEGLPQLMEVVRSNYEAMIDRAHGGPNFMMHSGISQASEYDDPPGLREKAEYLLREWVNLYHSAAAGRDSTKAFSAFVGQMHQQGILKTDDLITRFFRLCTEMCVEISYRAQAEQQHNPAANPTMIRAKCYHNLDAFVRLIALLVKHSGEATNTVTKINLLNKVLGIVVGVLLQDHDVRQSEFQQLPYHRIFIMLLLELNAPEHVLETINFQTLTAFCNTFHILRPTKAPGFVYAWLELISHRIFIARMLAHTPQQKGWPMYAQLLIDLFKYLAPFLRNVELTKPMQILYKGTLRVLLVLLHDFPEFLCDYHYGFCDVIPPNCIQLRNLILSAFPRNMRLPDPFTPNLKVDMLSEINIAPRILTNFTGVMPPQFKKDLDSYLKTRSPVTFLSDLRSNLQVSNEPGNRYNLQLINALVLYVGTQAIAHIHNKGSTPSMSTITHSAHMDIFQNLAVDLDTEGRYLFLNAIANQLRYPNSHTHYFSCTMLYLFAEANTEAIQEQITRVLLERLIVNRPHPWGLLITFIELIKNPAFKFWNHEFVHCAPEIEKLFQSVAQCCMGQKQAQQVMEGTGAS
UniProt Q92600: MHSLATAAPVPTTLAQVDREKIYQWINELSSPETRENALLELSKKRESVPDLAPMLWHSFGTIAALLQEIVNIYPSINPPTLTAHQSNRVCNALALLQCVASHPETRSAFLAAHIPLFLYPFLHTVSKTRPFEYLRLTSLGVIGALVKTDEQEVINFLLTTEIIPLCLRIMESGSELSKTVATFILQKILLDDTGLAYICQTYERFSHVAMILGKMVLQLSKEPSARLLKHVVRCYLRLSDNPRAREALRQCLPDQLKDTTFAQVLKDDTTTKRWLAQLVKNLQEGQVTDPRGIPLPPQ

Experiments:
[1] = biological target: FHS-FL-TNRC6A-S1332A/S1346A (human) (UniProt Q8NDV7); experiment: co-IP; lysates of HeLa cells expressing FHS-tagged TNRC6A-SD fragments (collected 24 h after transfection) or full-length TNRC6A (36 h), anti-FLAG antibody beads 2 h at 4 °C, lysis buffer with 140 mM NaCl, wash buffer with 300 mM NaCl and 0.5% NP40; endogenous CNOT1, CNOT9 and PABP detected by Western …
[2] = biological target: T1, FHS-TNRC6A-SD-S1616D/S1691D (human) (UniProt Q8NDV7); experiment: as above
T1 sequence: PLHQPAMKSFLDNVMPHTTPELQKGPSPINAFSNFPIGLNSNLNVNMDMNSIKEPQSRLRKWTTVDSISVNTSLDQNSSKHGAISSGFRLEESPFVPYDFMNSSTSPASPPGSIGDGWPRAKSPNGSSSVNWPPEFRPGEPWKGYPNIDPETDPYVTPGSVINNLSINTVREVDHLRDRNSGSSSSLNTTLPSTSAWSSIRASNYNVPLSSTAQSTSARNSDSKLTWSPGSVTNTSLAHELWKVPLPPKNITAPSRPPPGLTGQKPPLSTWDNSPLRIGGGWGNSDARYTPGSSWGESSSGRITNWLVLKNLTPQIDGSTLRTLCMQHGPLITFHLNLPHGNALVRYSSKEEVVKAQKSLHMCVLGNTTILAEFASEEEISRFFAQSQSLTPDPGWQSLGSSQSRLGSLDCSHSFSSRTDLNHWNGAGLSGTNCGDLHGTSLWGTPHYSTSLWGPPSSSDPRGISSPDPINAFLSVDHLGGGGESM

binding [1]	binding [2]	Substance
binds	binds	CNOT1 (from UniProt A5YKK6 1-2376)
binds	binds	CNOT9 (from UniProt Q92600 1-299)
